Results from publication PMC8136815.
No constants are given. Whether binding was seen depends on the method and setting. In cells and extracts the contact can be indirect. Where a sequence is shown, tags or fusion partners need not be part of it.

Target: FLAG-tagged ERG variant lacking the CTAD region (human)
Assay: co-IP; RNase A-treated lysates of HEK293 cells transfected with Myc-RBFOX2 and FLAG-tagged proteins; anti-FLAG immunoprecipitation, anti-Myc and anti-FLAG Western blot

- binding: no binding
B1: Myc-tagged RBFOX2 (protein, UniProt O43251 1-390)
chain: MQNEPLTPGYHGFPARDSQGNQEPTTTPDAMVQPFTTIPFPPPPQNGIPTEYGVPHTQDYAGQTGEHNLTLYGSTQAHGEQSSNSPSTQNGSLTTEGGAQTDGQQSQTQSSENSESKSTPKRLHVSNIPFRFRDPDLRQMFGQFGKILDVEIIFNERGSKGFGFVTFENSADADRAREKLHGTVVEGRKIEVNNATARVMTNKKMVTPYANGWKLSPVVGAVYGPELYAASSFQADVSLGNDAAVPLSGRGGINTYIPLISLPLVPGFPYPTAATTAAAFRGAHLRGRGRTVYGAVRAVPPTAIPAYPGVVYQDGFYGADLYGGYAAYRYAQPATATAATAAAAAAAAYSDGYGRVYTADPYHALAPAASYGVGAVASLYRGGYSRFAPY
